The text below walks through data of PubChem BioAssay (NCATS).

Each structure is given as a SMILES string. This is one part of the list. These are further read-outs of the screen, such as a control signal, another cell line or another target. No call is given for them. For part of these data: Compounds called inactive in the main read-out are mostly missing here. The note in brackets gives the kind of curve behind each potency; many fits are weak.

Experiment [1] can be described thus: Validation of Assay for Modulators of Lamin A Splicing (AID 1459). To be noted: Lamin A splicing dual RFP/GFP fluorescence reporter, ratio. Put shortly: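 Splicing correction read as GFP (500-530 nm) over DsRed2 (575-640 nm) object intensity after 48 h compound exposure of reporter HeLa S3 clones (600 cells/well, 2% FBS medium); ancitabine and cycloheximide titrations, 0.5% DMSO as vehicle.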

Experiment [2] can be described thus: qHTS Assay for Lipid Storage Modulators (AID 1519). To be noted: Drosophila S3 cells, BODIPY lipid droplet/cell ratio, laser cytometry, cells loaded with oleic acid. An outline of the steps:
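Cells seeded at 5,000 per well were treated with compounds over a concentration series and loaded with oleic acid (400 uM, as added). Lipid droplet fluorescence (488 nm excitation, 500-530 nm channel) was read by laser-scanning cytometry and normalized to 20 uM Triacsin C.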
For orientation: Quantitative high-throughput screening tests each substance at several concentrations.

Experiment [3] is described as follows: qHTS Assay for Modulators of Human Peripheral Myelin Protein 22 (PMP22) Expression/Activity (AID 1967). The following applies: Cell-based PMP22 reporter, dual-color luciferase ratio. An outline of the steps:
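Readout is the corrected green/red luminescence ratio after 24 h compound exposure, normalised to untreated cells (0%). Engineered MSC80 mouse Schwann cells express green luciferase from the mouse Pmp22 promoter and red luciferase from EF-alpha as internal control.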

Experiment [4] in a line: qHTS Validation Assay to Find Inhibitors of Chronic Active B-Cell Receptor Signaling (AID 485345). To be noted: ABC-DLBCL cells, chronic BCR signaling reporter. Put shortly: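 TMD8 ABC-DLBCL cells stably carrying doxycycline-inducible IkappaBalpha–green luciferase fusion plus unfused red luciferase; compounds 46 uM to 3 nM, 4 h at 37C with doxycycline. Corrected green/red luminescence ratio normalized to 10 uM MG-132 and basal cell wells; curves fitted.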

Experiment [5] is described as follows: Nrf2 qHTS screen for inhibitors: Validation (AID 493153). To be noted: A549 ARE-Fluc reporter, 18-24 h; AC50: CellTiter-Fluor fluorescence read, measured here: cytotoxicity CellTiter-Fluor AC50; viability change: measured here: cytotoxicity max response. An outline of the steps: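 A549 ARE_Fluc, 5% FBS OPTI-MEM; cpd titration, 18-24 h, 37°C/5% CO2. Read 1: CellTiter-Fluor (Ex 405/Em 525), cytotox. Read 2: luciferase lum, Nrf2 activity.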

The nature of experiment [6]: qHTS drug screen for cell cycle checkpoint inhibitors in PARPi-resistant BRCA-mutant ovarian cancer cell lines. (AID 1963452). To be noted: PEO1/OlaR viability, CellTiter-Glo luminescence, 96 h. An outline of the steps:
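PEO1, PEO4 and PEO1/OlaR ovarian cancer cells, 600 per well, exposed 96 h at 37C to a dilution series. Viability read by CellTiter-Glo luminescence, normalized to DMSO and empty wells; activity summarized as Z-AUC.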

Experiment [7] in a line: qHTS for identification of novel therapeutic agents for treatment of microphthalmiaassociated transcription factor (MiT) renal cell carcinoma (RCC) (AID 1963991). The following applies: CellTiter-Glo, 48 h; for z-score: stronger effect = lower value. An outline of the steps:
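Three TFE3-fusion RCC lines (UOK109, UOK124, UOK145), 500 cells/well in complete medium, were treated with MIPE 4.0 compounds for 48 hours at 37 C. Viability was by CellTiter-Glo luminescence, normalized to DMSO (100%) and empty wells (0%); curves fitted over 11 concentrations.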

[8] abbreviates: measured here: cell count channel max response.
The mark [9] stands for this setting: measured here: lipid channel max response.
[10] abbreviates: measured here: green reporter channel AC50, mouse Pmp22 promoter in mouse Schwann cells.
[11] abbreviates: measured here: red reporter channel AC50, EF-alpha promoter control reporter in MSC80 mouse Schwann cells.
Setting [12] is: measured here: lipid (BODIPY) channel AC50.
The mark [13] stands for this setting: measured here: cell number channel AC50.
[14] abbreviates: measured here: CBR control luciferase (viability counter).

The AC50 is the concentration at which the activity in the assay is half-maximal. Regarding `Oc1cc2c(cc1O)[C@H]1c3ccccc3CNC1CC2` (stereo partly specified), the AC50 in experiment [1] (measured here: GFP channel) was 35.5 µM [falling, single point]; in experiment [1] (measured here: RFP channel), 14.1 µM [falling, partial curve]; in experiment [3] (setting [10]) it was 75.7 µM [falling, partial curve]; in experiment [3] (setting [11]), 67.5 µM [falling, partial curve]. Besides, the max response turned out to be 52.9% in experiment [2] (setting [8]) and 55.4% in experiment [2] (setting [9]).
As to `CCCN1CCc2cccc3c2C1Cc1ccc(O)c(O)c1-3` (stereo unspecified), the AC50 is 35.5 µM [falling, single point] in experiment [1] (measured here: GFP channel); 17.8 µM [falling, partial curve] in experiment [1] (measured here: RFP channel); 33.8 µM [falling, partial curve] in experiment [3] (setting [10]); 42.6 µM [falling, partial curve] in experiment [3] (setting [11]).
Turning to `OCCN1CCN(CCCN2c3ccccc3Sc3ccc(C(F)(F)F)cc32)CC1`, the AC50 in experiment [1] (measured here: GFP channel) is 31.6 µM [falling, single point]; in experiment [1] (measured here: RFP channel), 25.1 µM [falling, single point]; in experiment [3] (setting [10]), 26.9 µM [falling, full curve]; in experiment [3] (setting [11]), 33.8 µM [falling, full curve].
With `O=C(O)C1C2CCC(O2)C1C(=O)O` (stereo unspecified), the AC50 in experiment [1] (measured here: GFP channel) is 10 µM [rising, partial curve]; in experiment [1] (measured here: RFP channel), 10 µM [rising, partial curve]; in experiment [2] (setting [12]), 22.4 µM [falling, full curve, poor fit]; in experiment [3] (setting [11]) it was 47.8 µM [falling, partial curve]. The max response in experiment [2] (setting [8]) is -45.2%; in experiment [2] (setting [9]), -43.5%.
In the case of `CC(C)[C@@]1(NC(=O)[C@@H]2C[C@@H]3c4cccc5[nH]cc(c45)C[C@H]3N(C)C2)O[C@@]2(O)C3CCCN3C(=O)[C@H](Cc3ccccc3)N2C1=O` (stereo partly specified), the AC50 in experiment [1] (measured here: GFP channel) was 22.4 µM [falling, single point]; in experiment [1] (measured here: RFP channel) it was 12.6 µM [falling, partial curve]; in experiment [3] (setting [10]) it was 60.1 µM [falling, partial curve]; in experiment [3] (setting [11]) it was 53.6 µM [falling, partial curve].
On to `CCCCCCCCCCCCCC(=O)O[C@@H]1[C@@H](C)[C@@]2(O)[C@@H](C=C(CO)C[C@@]3(O)C(=O)C(C)=C[C@@H]23)C2C(C)(C)[C@@]21OC(C)=O` (stereo partly specified), for which the AC50 is 0.0178 µM [rising, full curve, poor fit] in experiment [1] (measured here: GFP channel); 0.0178 µM [rising, full curve, poor fit] in experiment [1] (measured here: RFP channel); 44.7 µM [rising, single point] in experiment [2] (setting [13]); 44.7 µM [rising, single point] in experiment [2] (setting [12]); 53.6 µM [falling, partial curve] in experiment [3] (setting [10]); 42.6 µM [falling, partial curve] in experiment [3] (setting [11]). Moreover, in experiment [4] (setting [14]), the AC50 is 0.0517 µM [rising, full curve]. Besides, the max response in experiment [2] (setting [8]) came out at 61.7%; in experiment [2] (setting [9]), 49.7%.
In the case of `CN1C2CCC1CC(OC(c1ccccc1)c1ccc(Cl)cc1)C2` (stereo unspecified), the AC50 in experiment [1] (measured here: GFP channel) was 15.8 µM [falling, single point]; in experiment [1] (measured here: RFP channel) it was 22.4 µM [falling, partial curve]; in experiment [3] (setting [10]), 16.9 µM [falling, full curve]; in experiment [3] (setting [11]), 15.1 µM [falling, full curve].
`CC(=O)c1c(O)c(C)c(O)c(Cc2c(O)c3c(c(C(=O)/C=C/c4ccccc4)c2O)OC(C)(C)C=C3)c1O`: the AC50 in experiment [1] (measured here: GFP channel) was 15.8 µM [rising, single point]; in experiment [1] (measured here: RFP channel), 15.8 µM [rising, single point]; in experiment [2] (setting [13]), 0.708 µM [rising, full curve, poor fit]; in experiment [2] (setting [12]) it was 0.562 µM [rising, full curve]; in experiment [3] (setting [10]), 47.8 µM [falling, partial curve]; in experiment [3] (setting [11]), 47.8 µM [falling, partial curve]. Further, the AC50 in experiment [5] is 16.4 µM [falling, single point]. For the same compound, the figures for the max response in experiment [2] (setting [8]) and in experiment [2] (setting [9]) were 54.8% and 76.1%, respectively. Further, the viability change in experiment [5] is -51.8%.
Consider `COc1ccc2c(c[n+](C)c3c4cc5c(cc4ccc23)OCO5)c1OC`, for which the AC50 in experiment [1] (measured here: GFP channel) was 2.82 µM [falling, full curve]; in experiment [1] (measured here: RFP channel), 2.82 µM [falling, full curve]; in experiment [2] (setting [13]), 14.1 µM [falling, full curve, poor fit]; in experiment [2] (setting [12]), 14.1 µM [falling, full curve, poor fit]; in experiment [3] (setting [10]) it was 37.9 µM [falling, full curve]; in experiment [3] (setting [11]), 21.3 µM [falling, full curve]. The AC50 in experiment [4] (measured here: CBG/CBR ratio read-out) was 16.4 µM [falling, single point]; in experiment [4] (setting [14]), 13 µM [falling, partial curve]; in experiment [5], 16.4 µM [falling, partial curve, poor fit]; in experiment [6] (measured here: PEO1 parental viability), 24.5 µM [falling, single point]; in experiment [6] (measured here: PEO4 viability), 27.5 µM [falling, single point]; in experiment [7] (TFE3-RCC viability, measured here: UOK124 cell viability), 9.35 µM [falling, full curve]. For the same compound, the AC50 in experiment [7] (TFE3-RCC viability, measured here: UOK145 cell viability) is 7.43 µM [falling, full curve]. The max response in experiment [2] (setting [8]) is -102%; in experiment [2] (setting [9]), -116%. Also, the viability change in experiment [5] is -24.4%. The z-score in experiment [7] (TFE3-RCC UOK109 viability, measured here: UOK109 Z-AUC) is -0.625; in experiment [7] (TFE3-RCC viability, measured here: UOK124 Z-AUC), -0.392; in experiment [7] (TFE3-RCC viability, measured here: UOK145 Z-AUC), -1.08.
